In patent US12644840B2, “Pathogenic susceptibility assessment based on autofluoresence” (Adiuvo D[…] Limited, priority 2021, dated 2026):
At least one structure is not confirmed: it was looked up by name or label, or the drawing left a doubt.

Test system: Mycobacterium tuberculosis
Experiment: Autofluorescence-based susceptibility testing of positive sputum samples
Format: cell-based
Conditions: above MIC 3 μg/mL; drug added at 2.5, 5, 10 μg/mL; readings at 0th, 2nd, 4th hour

Structure (SMILES): NC[C@H]1O[C@H](O[C@H]2[C@H](O)[C@@H](O[C@H]3O[C@H](CO)[C@@H](O)[C@H](N)[C@H]3O)[C@H](N)C[C@@H]2N)[C@H](O)[C@@H](O)[C@@H]1O [kanamycin]
- autofluorescence intensity change: decrease in autofluorescence intensity
